Data as given in PubChem BioAssay AID1508587 (Peter MacCallum Cancer Centre, 2020).
Assay: 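Follow-up of vemurafenib sensitisers scored by lactate made per cell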 (follow-up of hits). Cells: human WM266.4 melanoma cells with a BRAF V600 mutation. Reagent: single siRNA against human genes, 25 nM. Duration: 96 h. Treatment: vemurafenib 300 nM (about IC25), given 48 h after transfection for 48 h. Detection: 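Medium lactate read by absorbance over DAPI-counted nuclei; ratio with versus without vemurafenib, set against non-targeting siRNA, averaged over 2 replicates; cell number also recorded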. Scale: lactate per cell, drug vs no drug: higher = less drug-induced drop in lactate per cell; lactate per cell with vemurafenib: higher = more lactate per cell under drug. Rule for the call: 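Enhancer call for any duplex whose drug versus no-drug per-cell lactate ratio is below 0.55 (2 SD beneath non-targeting average); genes confirmed when at least 2 of their 4 duplexes qualify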.
Shown is an unselected part of about 1,600 reagents. In the full data, 623 (39%) were called active. 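Calls are for each duplex; lactate ratios contain extreme outliers.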 Reagents against one gene are numbered here. Further read-outs or replicates are left out here.

With PITPNC1 #1, what was measured?
lactate per cell, drug vs no drug: 0.76; lactate per cell with vemurafenib: 1.08; activity call: inactive

How did the screen score PITPNC1 #2?
lactate per cell, drug vs no drug: 0.6; lactate per cell with vemurafenib: 0.96; activity call: inactive

Which result is listed for PITPNC1 #3?
lactate per cell, drug vs no drug: 0.61; lactate per cell with vemurafenib: 1.52; activity call: inactive

For PITPNC1 #4, what was measured?
lactate per cell, drug vs no drug: 0.55; lactate per cell with vemurafenib: 1.53; activity call: inactive

With MAGEA9B #1, how do the results read?
lactate per cell, drug vs no drug: 0.48; lactate per cell with vemurafenib: 1.19; activity call: active

Which result is listed for MAGEA9B #2?
lactate per cell, drug vs no drug: 0.77; lactate per cell with vemurafenib: 0.9; activity call: inactive

For MAGEA9B #3, how do the results read?
lactate per cell, drug vs no drug: 0.59; lactate per cell with vemurafenib: 0.78; activity call: inactive

What is on record for MAGEA9B #4?
lactate per cell, drug vs no drug: 0.68; lactate per cell with vemurafenib: 1.61; activity call: inactive

Which result is listed for CD9 #1?
lactate per cell, drug vs no drug: 0.73; lactate per cell with vemurafenib: 4.29; activity call: inactive

How did the screen score CD9 #2?
lactate per cell, drug vs no drug: 0.57; lactate per cell with vemurafenib: 1.16; activity call: inactive

What is on record for CD9 #3?
lactate per cell, drug vs no drug: 0.28; lactate per cell with vemurafenib: 0.26; activity call: active

With CD9 #4, what does the deposit list?
lactate per cell, drug vs no drug: 0.83; lactate per cell with vemurafenib: 1.03; activity call: inactive

With LRRC8D #1, what was measured?
lactate per cell, drug vs no drug: 0.6; lactate per cell with vemurafenib: 0.94; activity call: inactive

What did the screen give for LRRC8D #2?
lactate per cell, drug vs no drug: 0.56; lactate per cell with vemurafenib: 1.49; activity call: inactive

With LRRC8D #3, how do the results read?
lactate per cell, drug vs no drug: 0.39; lactate per cell with vemurafenib: 0.98; activity call: active

How did the screen score LRRC8D #4?
lactate per cell, drug vs no drug: 0.76; lactate per cell with vemurafenib: 1.73; activity call: inactive

What is on record for CT47A8 #1?
lactate per cell, drug vs no drug: 0.52; lactate per cell with vemurafenib: 0.86; activity call: active

What did the screen give for CT47A8 #2?
lactate per cell, drug vs no drug: 0.64; lactate per cell with vemurafenib: 1.1; activity call: inactive

What did the screen give for CT47A8 #3?
lactate per cell, drug vs no drug: 0.66; lactate per cell with vemurafenib: 1.84; activity call: inactive

For CT47A8 #4, how do the results read?
lactate per cell, drug vs no drug: 0.32; lactate per cell with vemurafenib: 0.45; activity call: active

2 consecutive records already listed, for reference:
PITPNC1 #2 — lactate per cell, drug vs no drug: 0.6; lactate per cell with vemurafenib: 0.96; activity call: inactive
PITPNC1 #3 — lactate per cell, drug vs no drug: 0.61; lactate per cell with vemurafenib: 1.52; activity call: inactive
